PubChem BioAssay AID1259308 | NCATS – 2017

Purpose: 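Knock-downs that increase output of a recombinant reporter protein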 (primary screen)
Cells: human HEK293 embryonic kidney cells stably expressing firefly luciferase (HEK-CMV-Luc2-Hygro)
Knock-down reagent: single siRNA against human genes, 0.8 pmol siRNA per well
Timing: 72 h
Detection: 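Luciferase light (ONE-Glo) measured on one replicate plate set and viability (CellTiter-Glo) on the other, scaled to a negative control siRNA, with robust z-scores and luciferase per cell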
Scale: total luciferase, z-score: higher = more reporter protein produced
Rule for the call: 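Active when the median/MAD z-score for overall luciferase is greater than 3; a gene was taken forward for validation with new siRNAs if at least two of its three siRNAs passed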
Calls: active = raised luciferase; inactive = no rise
The deposit covers about 59,000 reagents; below is a part drawn at random. About 1,510 of them (2.6%) were called active. 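Calls use total luciferase alone and ignore viability, so some active siRNAs may act by altering cell number.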 The numbers tell different reagents against one gene apart. Further read-outs or replicates are left out here.

For SRSF2 (GeneID 6427) #1, the entry reads total luciferase, z-score -0.299; inactive. Silencing of SRSF2 (GeneID 6427) #2 gave: total luciferase, z-score 0.0458; inactive. Against SRSF2 (GeneID 6427) #3, the entry reads total luciferase, z-score 0.452; inactive. With knock-down of CLTC (GeneID 1213) #1 the results were total luciferase, z-score -1.04; inactive. Knock-down of CLTC (GeneID 1213) #2 came out at: total luciferase, z-score -0.0258; inactive. Against CLTC (GeneID 1213) #3, the values are total luciferase, z-score -0.804; inactive.

2 neighbouring entries already listed, for reference:
SRSF2 (GeneID 6427) #1 — total luciferase, z-score = -0.299; Outcome = inactive
SRSF2 (GeneID 6427) #2 — total luciferase, z-score = 0.0458; Outcome = inactive

The results go on:
Against RNF115 (GeneID 27246) #1, the entry reads total luciferase, z-score -1.6; inactive. Against RNF115 (GeneID 27246) #2, the values are total luciferase, z-score 1.71; inactive. Silencing of RNF115 (GeneID 27246) #3 gave: total luciferase, z-score -1.87; inactive. Against UAP1L1 (GeneID 91373) #1, the values are total luciferase, z-score 2.81; inactive. For UAP1L1 (GeneID 91373) #2, the entry reads total luciferase, z-score 1.47; inactive. After knock-down of UAP1L1 (GeneID 91373) #3, the screen gave total luciferase, z-score 1.02; inactive.
